{"sequences": {"note": "The chains behind the UniProt entries cited, without tags or fusion partners.", "UniProt O60260": "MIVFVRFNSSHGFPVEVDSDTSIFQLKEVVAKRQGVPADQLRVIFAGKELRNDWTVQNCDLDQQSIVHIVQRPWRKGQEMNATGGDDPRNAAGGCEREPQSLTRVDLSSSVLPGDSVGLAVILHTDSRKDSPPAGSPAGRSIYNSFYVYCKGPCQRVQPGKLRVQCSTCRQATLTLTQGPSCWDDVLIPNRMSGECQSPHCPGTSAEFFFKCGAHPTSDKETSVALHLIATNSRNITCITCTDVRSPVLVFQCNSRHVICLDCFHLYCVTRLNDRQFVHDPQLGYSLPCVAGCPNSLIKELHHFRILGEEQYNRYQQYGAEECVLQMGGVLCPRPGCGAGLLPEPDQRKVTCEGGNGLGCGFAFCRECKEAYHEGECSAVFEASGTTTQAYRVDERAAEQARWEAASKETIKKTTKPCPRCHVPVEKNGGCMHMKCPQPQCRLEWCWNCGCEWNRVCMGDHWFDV"}, "source": "paper PMC12391048", "molecules": {"B1": {"name": "SFXN2 (endogenous) (protein, UniProt Q96NB2 1-322)", "chain": "MEADLSGFNIDAPRWDQRTFLGRVKHFLNITDPRTVFVSERELDWAKVMVEKSRMGVVPPGTQVEQLLYAKKLYDSAFHPDTGEKMNVIGRMSFQLPGGMIITGFMLQFYRTMPAVIFWQWVNQSFNALVNYTNRNAASPTSVRQMALSYFTATTTAVATAVGMNMLTKKAPPLVGRWVPFAAVAAANCVNIPMMRQQELIKGICVKDRNENEIGHSRRAAAIGITQVVISRITMSAPGMILLPVIMERLEKLHFMQKVKVLHAPLQVMLSGCFLIFMVPVACGLFPQKCELPVSYLEPKLQDTIKAKYGELEPYVYFNKGL"}, "B2": {"name": "SFXN2-HA (protein, UniProt Q96NB2 1-322)", "chain": "MEADLSGFNIDAPRWDQRTFLGRVKHFLNITDPRTVFVSERELDWAKVMVEKSRMGVVPPGTQVEQLLYAKKLYDSAFHPDTGEKMNVIGRMSFQLPGGMIITGFMLQFYRTMPAVIFWQWVNQSFNALVNYTNRNAASPTSVRQMALSYFTATTTAVATAVGMNMLTKKAPPLVGRWVPFAAVAAANCVNIPMMRQQELIKGICVKDRNENEIGHSRRAAAIGITQVVISRITMSAPGMILLPVIMERLEKLHFMQKVKVLHAPLQVMLSGCFLIFMVPVACGLFPQKCELPVSYLEPKLQDTIKAKYGELEPYVYFNKGL"}}, "key": {"[1]": {"biological_target": "T1, SFXN2 (endogenous) (human (endogenous in HEK293)) (UniProt Q96NB2)", "T1 sequence": "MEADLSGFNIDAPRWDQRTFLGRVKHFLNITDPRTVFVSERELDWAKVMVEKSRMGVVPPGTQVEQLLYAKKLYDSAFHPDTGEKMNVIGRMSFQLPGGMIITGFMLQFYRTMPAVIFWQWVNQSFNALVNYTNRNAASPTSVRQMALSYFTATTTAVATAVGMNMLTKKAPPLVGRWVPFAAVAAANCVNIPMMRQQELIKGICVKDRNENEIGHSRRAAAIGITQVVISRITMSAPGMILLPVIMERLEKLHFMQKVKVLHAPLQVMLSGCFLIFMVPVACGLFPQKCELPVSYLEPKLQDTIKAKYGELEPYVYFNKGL", "experiment": "co-IP; endogenous proteins in HEK293 lysates; IP with anti-SFXN2 or anti-Parkin antibody (unspecific IgG as control) plus protein A/G-agarose, 4°C overnight, five washes with IP lysis buffer; immunoblot with anti-SFXN2 and anti-Parkin"}, "[2]": {"biological_target": "T2, SFXN2-Myc (UniProt Q96NB2)", "T2 sequence": "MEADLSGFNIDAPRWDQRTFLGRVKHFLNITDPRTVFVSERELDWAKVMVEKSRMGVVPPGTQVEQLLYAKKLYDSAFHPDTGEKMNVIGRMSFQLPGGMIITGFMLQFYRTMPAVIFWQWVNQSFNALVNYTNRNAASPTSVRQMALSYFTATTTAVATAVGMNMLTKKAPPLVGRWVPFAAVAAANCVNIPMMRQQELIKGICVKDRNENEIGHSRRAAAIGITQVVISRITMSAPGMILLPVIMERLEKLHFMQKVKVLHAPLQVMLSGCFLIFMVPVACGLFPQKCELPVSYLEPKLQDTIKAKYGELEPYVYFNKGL", "experiment": "co-IP; transiently transfected HEK293 cells; lysates immunoprecipitated with anti-Myc antibody, 4°C overnight, five washes with IP lysis buffer; immunoblot with anti-Myc and anti-HA"}, "[3]": {"biological_target": "Parkin (endogenous) (human (endogenous in HEK293)) (UniProt O60260)", "experiment": "co-IP; endogenous proteins in HEK293 lysates; IP with anti-SFXN2 or anti-Parkin antibody (unspecific IgG as control) plus protein A/G-agarose, 4°C overnight, five washes with IP lysis buffer; immunoblot with anti-SFXN2 and anti-Parkin"}, "[4]": {"biological_target": "Parkin-Myc (UniProt O60260)", "experiment": "co-IP; transiently transfected HEK293 cells; lysates immunoprecipitated with anti-Myc antibody, 4°C overnight, five washes with IP lysis buffer; immunoblot with anti-Myc and anti-HA"}}, "note": "These are yes or no findings as the source states them, for the method shown. In cells and extracts the contact can be indirect. Some entries that bind do so weakly or less than the wild type. For some of these results: Tags and fused reporters may be left off the sequences shown.", "data": [{"molecule": "Parkin (endogenous) (from UniProt O60260 1-465)", "values": [{"measurement": "binding", "setting": "[1]", "value": "binds"}]}, {"molecule": "Parkin-HA (from UniProt O60260 1-465)", "values": [{"measurement": "binding", "setting": "[2]", "value": "binds"}]}, {"molecule": "B1", "values": [{"measurement": "binding", "setting": "[3]", "value": "binds"}]}, {"molecule": "B2", "values": [{"measurement": "binding", "setting": "[4]", "value": "binds"}]}]}
